Experimental findings from PMC4390341 are described below.

By UniProt entry, the sequences of proteins in these tests, tags left out.
UniProt Q9H0Y0: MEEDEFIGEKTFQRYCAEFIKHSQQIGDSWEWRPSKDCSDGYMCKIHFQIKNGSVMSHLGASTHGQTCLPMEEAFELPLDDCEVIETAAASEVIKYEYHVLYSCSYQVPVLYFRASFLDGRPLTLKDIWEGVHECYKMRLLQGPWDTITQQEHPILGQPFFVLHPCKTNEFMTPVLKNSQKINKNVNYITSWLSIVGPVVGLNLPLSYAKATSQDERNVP
UniProt Q9H1Y0: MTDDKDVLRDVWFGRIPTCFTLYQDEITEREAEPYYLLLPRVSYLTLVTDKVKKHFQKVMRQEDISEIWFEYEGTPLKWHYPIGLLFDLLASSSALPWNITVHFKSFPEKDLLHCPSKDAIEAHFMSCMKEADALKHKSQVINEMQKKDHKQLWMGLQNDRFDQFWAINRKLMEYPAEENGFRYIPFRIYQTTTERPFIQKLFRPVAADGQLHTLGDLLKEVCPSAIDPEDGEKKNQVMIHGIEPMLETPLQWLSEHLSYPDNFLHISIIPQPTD

These are yes or no findings as the source states them, for the method shown. In cells and extracts the contact can be indirect. Some binding calls cover weakened binding; strength is not graded here. Tags and fused reporters may be left off the sequences shown.

In one test the target is HA-Atg10 (human) (UniProt Q9H0Y0). Put plainly: co-IP; HeLa cells co-transfected with HA-Atg5 or HA-Atg10 and Myc-IRGM for 24 h, then CA16 infection (MOI = 2) for 12 h; IP with anti-HA antibody, WB with anti-HA and anti-Myc.
A further test concerns the target HA-Atg5 (human) (UniProt Q9H1Y0). The test is described as above.

B1: Myc-IRGM (protein, UniProt A1A4Y4 1-181)
chain: MEAMNVEKASADGNLPEVISNIKETLKIVSRTPVNITMAGDSGNGMSTFISALRNTGHEGKASPPTELVKATQRCASYFSSHFSNVVLWDLPGTGSATTTLENYLMEMQFNRYDFIMVASAQFSMNHVMLAKTAEDMGKKFYIVWTKLDMDLSTGALPEVQLLQIRENVLENLQKERVCEY
Consider B1, for which the binding result in the test with HA-Atg10 (human) and with HA-Atg5 (human) was “binds” in each case.
